Data as given in PubChem BioAssay AID1671195 (Yale University, 2021).

Purpose: 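Genes whose knockdown alters LDL uptake in liver cancer cells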 (primary screen)
Cells: human Huh7 hepatoma cells
Knock-down reagent: siRNA pool against human genes, 18 nM
Timing: about 2 to 2.5 days of knockdown, then 8 h LDL uptake
Treatment: DiI-labelled LDL at 30 µg/ml for 8 h, in lipoprotein-deficient serum medium
Read-out: 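Per-cell DiI-LDL intensity by automated imaging; well means scaled to the plate median and given as a robust z-score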
Reading the numbers: robust z-score: higher = more LDL uptake after knockdown
Hit rule: 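a gene counts as active if at least two replicate z-scores exceed ±2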
This is one part, drawn at random, of about 22,000 reagents tested. About 1,510 of them (6.9%) count as active. 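Active includes knockdowns raising or lowering LDL uptake; positive z-scores mean more uptake, negative mean less.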

What did the screen give for ABCA4 (ATP binding cassette subfamily A member 4)?
robust z-score, replicate 1: -0.811; robust z-score, replicate 2: -0.513; robust z-score, replicate 3: -0.955; call: inactive

What is on record for KDM2B (lysine demethylase 2B)?
robust z-score, replicate 1: 0.0867; robust z-score, replicate 2: 0.342; robust z-score, replicate 3: -0.436; call: inactive

How did the screen score AGRP (agouti related neuropeptide)?
robust z-score, replicate 1: 1.03; robust z-score, replicate 2: -0.46; robust z-score, replicate 3: 0.145; call: inactive

For PTPN23 (protein tyrosine phosphatase non-receptor type 23), what was measured?
robust z-score, replicate 1: -0.415; robust z-score, replicate 2: -0.418; robust z-score, replicate 3: -0.81; call: inactive

With GRIA3 (glutamate ionotropic receptor AMPA type subunit 3), what was measured?
robust z-score, replicate 1: -1.29; robust z-score, replicate 2: -0.306; robust z-score, replicate 3: -2.08; call: inactive

Which result is listed for RTP2 (receptor transporter protein 2)?
robust z-score, replicate 1: 0.15; robust z-score, replicate 2: 0.12; robust z-score, replicate 3: 0.204; call: inactive

For NME6 (NME/NM23 nucleoside diphosphate kinase 6), what was measured?
robust z-score, replicate 1: 0.0691; robust z-score, replicate 2: 1.04; robust z-score, replicate 3: 0.092; call: inactive

With ITPKC (inositol-trisphosphate 3-kinase C), how do the results read?
robust z-score, replicate 1: -0.173; robust z-score, replicate 2: -0.326; robust z-score, replicate 3: -0.378; call: inactive

With LOC440112 (retired record), how do the results read?
robust z-score, replicate 1: -1.06; robust z-score, replicate 2: -0.629; robust z-score, replicate 3: -0.509; call: inactive

What is on record for CD48 (CD48 molecule)?
robust z-score, replicate 1: -0.31; robust z-score, replicate 2: 0.0863; robust z-score, replicate 3: -0.247; call: inactive

For PPM1B (protein phosphatase, Mg2+/Mn2+ dependent 1B), what does the deposit list?
robust z-score, replicate 1: 0.0372; robust z-score, replicate 2: -0.416; robust z-score, replicate 3: -0.549; call: inactive

How did the screen score GHDC (GH3 domain containing)?
robust z-score, replicate 1: 2.43; robust z-score, replicate 2: 1.67; robust z-score, replicate 3: 1.86; call: inactive

What is on record for LOC149709 (retired record)?
robust z-score, replicate 1: -1.03; robust z-score, replicate 2: -1.55; robust z-score, replicate 3: -0.277; call: inactive

How did the screen score LOC400197 (retired record)?
robust z-score, replicate 1: -1.09; robust z-score, replicate 2: -0.298; robust z-score, replicate 3: -0.425; call: inactive

With SLC16A7, how do the results read?
robust z-score, replicate 1: -0.0214; robust z-score, replicate 2: 1.05; robust z-score, replicate 3: 0.635; call: inactive

How did the screen score DSG1 (desmoglein 1)?
robust z-score, replicate 1: -0.512; robust z-score, replicate 2: -0.694; robust z-score, replicate 3: -0.583; call: inactive

Copied from the entries so far for reference:
KDM2B (lysine demethylase 2B) → robust z-score, replicate 1: 0.0867; robust z-score, replicate 2: 0.342; robust z-score, replicate 3: -0.436; call: inactive
AGRP (agouti related neuropeptide) → robust z-score, replicate 1: 1.03; robust z-score, replicate 2: -0.46; robust z-score, replicate 3: 0.145; call: inactive
